The labels stand for the following.
B1: Myosin regulatory light chain 12A (protein, UniProt P19105 1-171)
chain: MSSKRTKTKTKKRPQRATSNVFAMFDQSQIQEFKEAFNMIDQNRDGFIDKEDLHDMLASLGKNPTDEYLDAMMNEAPGPINFTMFLTMFGEKLNGTDPEDVIRNAFACFDEEATGTIQEDYLRELLTTMGDRFTDEEVDELYREAPIDKKGNFNYIEFTRILKHGAKDKDD
B2: Lysyl oxidase homolog 4 (protein, UniProt Q96JB6 25-756)
chain: QSLGTTKLRLVGPESKPEEGRLEVLHQGQWGTVCDDNFAIQEATVACRQLGFEAALTWAHSAKYGQGEGPIWLDNVRCVGTESSLDQCGSNGWGVSDCSHSEDVGVICHPRRHRGYLSETVSNALGPQGRRLEEVRLKPILASAKQHSPVTEGAVEVKYEGHWRQVCDQGWTMNNSRVVCGMLGFPSEVPVDSHYYRKVWDLKMRDPKSRLKSLTNKNSFWIHQVTCLGTEPHMANCQVQVAPARGKLRPACPGGMHAVVSCVAGPHFRPPKTKPQRKGSWAEEPRVRLRSGAQVGEGRVEVLMNRQWGTVCDHRWNLISASVVCRQLGFGSAREALFGARLGQGLGPIHLSEVRCRGYERTLSDCPALEGSQNGCQHENDAAVRCNVPNMGFQNQVRLAGGRIPEEGLLEVQVEVNGVPRWGSVCSENWGLTEAMVACRQLGLGFAIHAYKETWFWSGTPRAQEVVMSGVRCSGTELALQQCQRHGPVHCSHGGGRFLAGVSCMDSAPDLVMNAQLVQETAYLEDRPLSQLYCAHEENCLSKSADHMDWPYGYRRLLRFSTQIYNLGRTDFRPKTGRDSWVWHQCHRHYHSIEVFTHYDLLTLNGSKVAEGHKASFCLEDTNCPTGLQRRYACANFGEQGVTVGCWDTYRHDIDCQWVDITDVGPGNYIFQVIVNPHYEVAESDFSNNMLQCRCKYDGHRVWLHNCHTGNSYPANAELSLEQEQRLRNNLI
B3: CMRF35-like molecule 8 (protein, UniProt Q9UGN4 18-299)
chain: LSKCRTVAGPVGGSLSVQCPYEKEHRTLNKYWCRPPQIFLCDKIVETKGSAGKRNGRVSIRDSPANLSFTVTLENLTEEDAGTYWCGVDTPWLRDFHDPVVEVEVSVFPASTSMTPASITAAKTSTITTAFPPVSSTTLFAVGATHSASIQEETEEVVNSQLPLLLSLLALLLLLLVGASLLAWRMFQKWIKAGDHSELSQNPKQAATQSELHYANLELLMWPLQEKPAPPREVEVEYSTVASPREELHYASVVFDSNTNRIAAQRPREEEPDSDYSVIRKT
B4: Syntaxin-6 (protein, UniProt O43752 1-255)
chain: MSMEDPFFVVKGEVQKAVNTAQGLFQRWTELLQDPSTATREEIDWTTNELRNNLRSIEWDLEDLDETISIVEANPRKFNLDATELSIRKAFITSTRQVVRDMKDQMSTSSVQALAERKNRQALLGDSGSQNWSTGTTDKYGRLDRELQRANSHFIEEQQAQQQLIVEQQDEQLELVSGSIGVLKNMSQRIGGELEEQAVMLEDFSHELESTQSRLDNVMKKLAKVSHMTSDRRQWCAIAILFAVLLVVLILFLVL
B5: Myosin regulatory light polypeptide 9 (protein, UniProt P24844 1-172)
chain: MSSKRAKAKTTKKRPQRATSNVFAMFDQSQIQEFKEAFNMIDQNRDGFIDKEDLHDMLASLGKNPTDEYLEGMMSEAPGPINFTMFLTMFGEKLNGTDPEDVIRNAFACFDEEASGFIHEDHLRELLTTMGDRFTDEEVDEMYREAPIDKKGNFNYVEFTRILKHGAKDKDD
B6: RAB6A-GEF complex partner protein 2 (protein, UniProt Q92546 1-391)
chain: MIEVVAELSRGPVFLAGEALECVVTVTNPLPPTATSASSEALAWASAQIHCQFHASESRVALPPPDSSQPDVQPDSQTVFLPHRGERGQCILSTPPKILFCDLRLDPGESKSYSYSEVLPIEGPPSFRGQSVKYVYKLTIGCQRVNSPITLLRVPLRVLVLTGLQDVRFPQDEAVAPSSPFLEEDEGGKKDSWLAELAGERLMAATSCRSLHLYNISDGRGKVGTFGIFKSVYRLGEDVVGTLNLGEGTVACLQFSVSLQTEERVQPEYQRRRGAGGVPSVSHVTHARHQESCLHTTRTSFSLPIPLSSTPGFCTAIVSLKWRLHFEFVTSREPGLVLLPPVEQPEPTTWTGPEQVPVDTFSWDLPIKVLPTSPTLASYAAPGPSTSTITI
B7: Ras-related protein Rab-39A (protein, UniProt Q14964 1-217)
chain: METIWIYQFRLIVIGDSTVGKSCLLHRFTQGRFPGLRSPACDPTVGVDFFSRLLEIEPGKRIKLQLWDTAGQERFRSITRSYYRNSVGGFLVFDITNRRSFEHVKDWLEEAKMYVQPFRIVFLLVGHKCDLASQRQVTREEAEKLSADCGMKYIETSAKDATNVEESFTILTRDIYELIKKGEICIQDGWEGVKSGFVPNTVHSSEEAVKPRKECFC
B8: Rab-like protein 3 (protein, UniProt Q5HYI8 1-236)
chain: MASLDRVKVLVLGDSGVGKSSLVHLLCQNQVLGNPSWTVGCSVDVRVHDYKEGTPEEKTYYIELWDVGGSVGSASSVKSTRAVFYNSVNGIIFVHDLTNKKSSQNLRRWSLEALNRDLVPTGVLVTNGDYDQEQFADNQIPLLVIGTKLDQIHETKRHEVLTRTAFLAEDFNPEEINLDCTNPRYLAAGSSNAVKLSRFFDKVIEKRYFLREGNQIPGFPDRKRFGAGTLKSLHYD

No constants are given. Whether binding was seen depends on the method and setting. Binding seen in cells or lysates may run through a third protein. A yes stands for co-enrichment or nearness to the bait. Other partners may have been found.

In the experiment the target is NEU1 sialidase (endogenous, plasma membrane of macrophages) (human (endogenous in THP-1)) (UniProt Q99519). The experiment can be described thus: affinity purification with mass spectrometry; 4.8 x 10^8 macrophages differentiated from THP-1 cells; surface biotinylation (sulfo-NHS-LC-biotin), lysis in HEPES buffer pH 7.5 with 1% Triton X-100, monomeric avidin agarose, elution with 10 mM biotin, then immunoprecipitation with rabbit polyclonal anti-NEU1 on protein G Sepharose (overnight, 4 °C); SDS-PAGE, 23 bands, LC-MS/MS; rabbit IgG control; two independent purifications.
B1: the binding result is “binds”.

Turning to B2, the binding entry is listed as “binds”.

Turning to B3, the binding result was “binds”.

On to B4, for which the binding entry is listed as “binds”.

As for B5, the binding result is “binds”.

On to B6, for which the binding result is recorded as “binds”.

Take B7: the binding result is recorded as “binds”.

For B8, the binding entry was “binds”.

Values taken from publication PMC6514072.
